The source gives many values for each of these; only a part stands here.
Tests used:
Assay type in all cases: cell-based
Details in all cases: U-87MG ATCC
[1] = Inhibition of RTK/PI3K/AKT/mTOR signaling in human U87 cells assessed as down regulation of NAV3 gene expression at cytotoxic IC50 measured after 48 hrs relative to control
[2] = Inhibition of RTK/PI3K/AKT/mTOR signaling in human U87 cells assessed as down regulation of SH3TC1 gene expression at cytotoxic IC50 measured after 48 hrs relative to control
[3] = Inhibition of RTK/PI3K/AKT/mTOR signaling in human U87 cells assessed as down regulation of ENPP1 gene expression at cytotoxic IC50 measured after 48 hrs relative to control
[4] = Inhibition of RTK/PI3K/AKT/mTOR signaling in human U87 cells assessed as down regulation of PCSK5 gene expression at cytotoxic IC50 measured after 48 hrs relative to control
[5] = Inhibition of RTK/PI3K/AKT/mTOR signaling in human U87 cells assessed as down regulation of HRH1 gene expression at cytotoxic IC50 measured after 48 hrs relative to control
[6] = Inhibition of RTK/PI3K/AKT/mTOR signaling in human U87 cells assessed as down regulation of MTMR9 gene expression at cytotoxic IC50 measured after 48 hrs relative to control
[7] = Inhibition of RTK/PI3K/AKT/mTOR signaling in human U87 cells assessed as down regulation of KLF10 gene expression at cytotoxic IC50 measured after 48 hrs relative to control
[8] = Inhibition of RTK/PI3K/AKT/mTOR signaling in human U87 cells assessed as down regulation of EMC3 gene expression at cytotoxic IC50 measured after 48 hrs relative to control
[9] = Inhibition of RTK/PI3K/AKT/mTOR signaling in human U87 cells assessed as down regulation of PLK4 gene expression at cytotoxic IC50 measured after 48 hrs relative to control
[10] = Inhibition of RTK/PI3K/AKT/mTOR signaling in human U87 cells assessed as down regulation of MTMR14 gene expression at cytotoxic IC50 measured after 48 hrs relative to control
[11] = Inhibition of RTK/PI3K/AKT/mTOR signaling in human U87 cells assessed as down regulation of LIG1 gene expression at cytotoxic IC50 measured after 48 hrs relative to control
[12] = Inhibition of RTK/PI3K/AKT/mTOR signaling in human U87 cells assessed as down regulation of CAT gene expression at cytotoxic IC50 measured after 48 hrs relative to control
[13] = Inhibition of RTK/PI3K/AKT/mTOR signaling in human U87 cells assessed as down regulation of ATP5E gene expression at cytotoxic IC50 measured after 48 hrs relative to control
[14] = Inhibition of RTK/PI3K/AKT/mTOR signaling in human U87 cells assessed as down regulation of MBD1 gene expression at cytotoxic IC50 measured after 48 hrs relative to control
[15] = Inhibition of RTK/PI3K/AKT/mTOR signaling in human U87 cells assessed as down regulation of PARP2 gene expression at cytotoxic IC50 measured after 48 hrs relative to control
[16] = Inhibition of RTK/PI3K/AKT/mTOR signaling in human U87 cells assessed as up regulation of TNFSF18 gene expression at cytotoxic IC50 measured after 48 hrs relative to control
[17] = Inhibition of RTK/PI3K/AKT/mTOR signaling in human U87 cells assessed as up regulation of FOXO6 gene expression at cytotoxic IC50 measured after 48 hrs relative to control
[18] = Inhibition of RTK/PI3K/AKT/mTOR signaling in human U87 cells assessed as up regulation of SLC38A2 gene expression at cytotoxic IC50 measured after 48 hrs relative to control
[19] = Inhibition of RTK/PI3K/AKT/mTOR signaling in human U87 cells assessed as up regulation of VSIR gene expression at cytotoxic IC50 measured after 48 hrs relative to control
[20] = Inhibition of RTK/PI3K/AKT/mTOR signaling in human U87 cells assessed as up regulation of LRFN1 gene expression at cytotoxic IC50 measured after 48 hrs relative to control
[21] = Inhibition of RTK/PI3K/AKT/mTOR signaling in human U87 cells assessed as up regulation of G protein-coupled receptor class C group 5 member B gene expression at cytotoxic IC50 measured after 48 hrs relative to control
[22] = Inhibition of RTK/PI3K/AKT/mTOR signaling in human U87 cells assessed as up regulation of family with sequence similarity 13 member A gene expression at cytotoxic IC50 measured after 48 hrs relative to control
[23] = Inhibition of RTK/PI3K/AKT/mTOR signaling in human U87 cells assessed as up regulation of beaded filament structural protein 1 gene expression at cytotoxic IC50 measured after 48 hrs relative to control
[24] = Inhibition of RTK/PI3K/AKT/mTOR signaling in human U87 cells assessed as up regulation of PDX1 C-terminal inhibiting factor 1 gene expression at cytotoxic IC50 measured after 48 hrs relative to control
[25] = Inhibition of RTK/PI3K/AKT/mTOR signaling in human U87 cells assessed as up regulation of interferon regulatory factor 2 binding protein like gene expression at cytotoxic IC50 measured after 48 hrs relative to control
[26] = Inhibition of RTK/PI3K/AKT/mTOR signaling in human U87 cells assessed as up regulation of cytochrome b gene expression at cytotoxic IC50 measured after 48 hrs relative to control
[27] = Inhibition of RTK/PI3K/AKT/mTOR signaling in human U87 cells assessed as up regulation of tetratricopeptide repeat domain 39A gene expression at cytotoxic IC50 measured after 48 hrs relative to control
[28] = Inhibition of RTK/PI3K/AKT/mTOR signaling in human U87 cells assessed as up regulation of ubiquitin conjugating enzyme E2 E1 gene expression at cytotoxic IC50 measured after 48 hrs relative to control
[29] = Inhibition of RTK/PI3K/AKT/mTOR signaling in human U87 cells assessed as up regulation of fatty acid desaturase 1 gene expression at cytotoxic IC50 measured after 48 hrs relative to control
[30] = Inhibition of RTK/PI3K/AKT/mTOR signaling in human U87 cells assessed as up regulation of tropomyosin 2 (beta) gene expression at cytotoxic IC50 measured after 48 hrs relative to control
[31] = Inhibition of RTK/PI3K/AKT/mTOR signaling in human U87 cells assessed as up regulation of coenzyme Q8A gene expression at cytotoxic IC50 measured after 48 hrs relative to control
[32] = Inhibition of RTK/PI3K/AKT/mTOR signaling in human U87 cells assessed as up regulation of ATP synthase, H+ transporting, mitochondrial Fo complex subunit C2 (subunit 9) gene expression at cytotoxic IC50 measured after 48 hrs relative to control

CC(=O)C(=NNc1ccccc1C#N)C(C)=O
log2FC [1]: -1.66 | log2FC [2]: -1.59 | log2FC [3]: -1.58 | log2FC [4]: -1.33 | log2FC [5]: -1.1 | log2FC [6]: -1.1 | log2FC [7]: -0.946 | log2FC [8]: -0.845 | log2FC [9]: -0.814 | log2FC [10]: -0.756 | log2FC [11]: -0.698 | log2FC [12]: -0.557 | log2FC [13]: -0.549 | log2FC [14]: -0.527 | log2FC [15]: -0.681 | log2FC [16]: 4.3 | log2FC [17]: 2.49 | log2FC [18]: 2.37 | log2FC [19]: 2.25 | log2FC [20]: 1.72 | log2FC [21]: 1.3 | log2FC [22]: 1.23 | log2FC [23]: 1.08 | log2FC [24]: 1.05 | log2FC [25]: 0.894 | log2FC [26]: 0.891 | log2FC [27]: 0.827 | log2FC [28]: 0.807 | log2FC [29]: 0.759 | log2FC [30]: 0.674 | log2FC [31]: 0.666 | log2FC [32]: 0.664

Source: ChEMBL document CHEMBL4316593 (Eur J Med Chem, 2019)
